Assay results from article PMC8384837.
Where a chain is given by its changes, count along the chain named. This is one part of the list. For part of these data: At the low end of the ranking the order means little. For part of these data: Construct or isoform of the protein are uncertain.

Legend:
Settings in all cases: yeast three-hybrid, YBZ-1, SC-Leu-His + 0.5 mM 3-AT, 4 days
[1] = target: T1, PUM1 PUF domain R1-QFR R2-VFQ R7-NPG S863Q + R864F + Q867R + N899V + Y900F + S1079N + N1080P + E1083G (UniProt Q14671)
T1 sequence: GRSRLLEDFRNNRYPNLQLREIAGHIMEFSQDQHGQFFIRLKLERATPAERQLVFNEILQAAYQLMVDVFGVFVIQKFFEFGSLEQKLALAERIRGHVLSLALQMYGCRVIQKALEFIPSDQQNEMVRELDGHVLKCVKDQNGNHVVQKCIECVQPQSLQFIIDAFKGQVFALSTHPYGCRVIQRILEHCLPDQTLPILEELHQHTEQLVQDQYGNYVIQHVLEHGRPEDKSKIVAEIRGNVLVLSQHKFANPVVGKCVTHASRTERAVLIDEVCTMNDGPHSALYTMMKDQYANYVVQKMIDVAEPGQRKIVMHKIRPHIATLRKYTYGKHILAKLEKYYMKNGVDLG

[2] = target: T2, PUM1 PUF domain R2-VFQ R3-THE R4-TFR N899V + Y900F + C935T + R936H + Q939E + N971T + H972F + Q975R (UniProt Q14671)
T2 sequence: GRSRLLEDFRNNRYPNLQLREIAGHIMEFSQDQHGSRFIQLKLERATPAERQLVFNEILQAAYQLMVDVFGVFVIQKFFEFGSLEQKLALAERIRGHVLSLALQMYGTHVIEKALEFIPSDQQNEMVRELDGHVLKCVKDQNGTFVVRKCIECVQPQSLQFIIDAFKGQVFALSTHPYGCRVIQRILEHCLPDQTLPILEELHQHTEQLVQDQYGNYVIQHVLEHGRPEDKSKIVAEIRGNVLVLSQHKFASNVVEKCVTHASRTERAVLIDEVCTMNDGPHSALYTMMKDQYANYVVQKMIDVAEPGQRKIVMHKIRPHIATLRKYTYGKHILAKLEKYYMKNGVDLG

[3] = target: T3, PUM1 PUF domain R3-THE R4-TFR C935T + R936H + Q939E + N971T + H972F + Q975R (UniProt Q14671)
T3 sequence: T2 sequence with V72N, F73Y

[4] = target: T4, PUM1 PUF domain R3-THE R4-TFR R7-NPG C935T + R936H + Q939E + N971T + H972F + Q975R + S1079N + N1080P + E1083G (Homo sapiens) (UniProt Q14671)
T4 sequence: T2 sequence with V72N, F73Y, S252N, N253P, E256G

[5] = target: T5, PUM1 PUF domain R5-PHQ R6-SWD C1007P + R1008H + N1043S + Y1044W + Q1047D (UniProt Q14671)
T5 sequence: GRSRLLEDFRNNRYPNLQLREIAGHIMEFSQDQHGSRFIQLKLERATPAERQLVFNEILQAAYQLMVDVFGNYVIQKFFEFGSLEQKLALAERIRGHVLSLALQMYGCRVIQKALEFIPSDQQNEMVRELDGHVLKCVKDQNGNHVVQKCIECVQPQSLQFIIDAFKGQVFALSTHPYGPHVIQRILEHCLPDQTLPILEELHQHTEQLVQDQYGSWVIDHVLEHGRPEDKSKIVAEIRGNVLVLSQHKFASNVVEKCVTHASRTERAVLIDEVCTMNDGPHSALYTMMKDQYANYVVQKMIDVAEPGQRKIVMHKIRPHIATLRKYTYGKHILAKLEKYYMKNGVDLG

[6] = target: T6, PUM1 PUF domain R6-AFF N1043A + Y1044F + Q1047F (UniProt Q14671)
T6 sequence: T5 sequence with P180C, H181R, S216A, W217F, D220F

[7] = target: T7, PUM1 PUF domain R6-AFG N1043A + Y1044F + Q1047G (UniProt Q14671)
T7 sequence: T5 sequence with P180C, H181R, S216A, W217F, D220G

[8] = target: T8, PUM1 PUF domain R6-AFL N1043A + Y1044F + Q1047L (UniProt Q14671)
T8 sequence: T5 sequence with P180C, H181R, S216A, W217F, D220L

[9] = target: T9, PUM1 PUF domain R6-AFS N1043A + Y1044F + Q1047S (Homo sapiens) (UniProt Q14671)
T9 sequence: T5 sequence with P180C, H181R, S216A, W217F, D220S

[10] = target: T10, PUM1 PUF domain R6-AWE N1043A + Y1044W + Q1047E (UniProt Q14671)
T10 sequence: T5 sequence with P180C, H181R, S216A, D220E

[11] = target: T11, PUM1 PUF domain R6-AWG N1043A + Y1044W + Q1047G (UniProt Q14671)
T11 sequence: T5 sequence with P180C, H181R, S216A, D220G

[12] = target: T12, PUM1 PUF domain R6-AWS N1043A + Y1044W + Q1047S (Homo sapiens) (UniProt Q14671)
T12 sequence: T5 sequence with P180C, H181R, S216A, D220S

[13] = target: T13, PUM1 PUF domain R6-AWV N1043A + Y1044W + Q1047V (UniProt Q14671)
T13 sequence: T5 sequence with P180C, H181R, S216A, D220V

[14] = target: T14, PUM1 PUF domain R6-AYE N1043A + Q1047E (UniProt Q14671)
T14 sequence: T5 sequence with P180C, H181R, S216A, W217Y, D220E

[15] = target: T15, PUM1 PUF domain R6-AYG N1043A + Q1047G (UniProt Q14671)
T15 sequence: T5 sequence with P180C, H181R, S216A, W217Y, D220G

[16] = target: T16, PUM1 PUF domain R6-AYQ N1043A (UniProt Q14671)
T16 sequence: T5 sequence with P180C, H181R, S216A, W217Y, D220Q

[17] = target: T17, PUM1 PUF domain R6-CFC N1043C + Y1044F + Q1047C (UniProt Q14671)
T17 sequence: T5 sequence with P180C, H181R, S216C, W217F, D220C

[18] = target: T18, PUM1 PUF domain R6-CFE N1043C + Y1044F + Q1047E (UniProt Q14671)
T18 sequence: T5 sequence with P180C, H181R, S216C, W217F, D220E

[19] = target: T19, PUM1 PUF domain R6-CFF N1043C + Y1044F + Q1047F (UniProt Q14671)
T19 sequence: T5 sequence with P180C, H181R, S216C, W217F, D220F

[20] = target: T20, PUM1 PUF domain R6-CHR N1043C + Y1044H + Q1047R (Homo sapiens) (UniProt Q14671)
T20 sequence: T5 sequence with P180C, H181R, S216C, W217H, D220R

[21] = target: T21, PUM1 PUF domain R6-CWG N1043C + Y1044W + Q1047G (UniProt Q14671)
T21 sequence: T5 sequence with P180C, H181R, S216C, D220G

GGCUAGAACUAGUGGAUCCCCCGGCGCCCGGCGGCUCGAGCCCGGGUAAGUGCAAAUAGUCUGCAUGCCGCCGGGCGCCAUGCCUGCAGGUCGACUCUAGAAAACAUG
binding signal (log2 enrichment (interaction score)) [1]: -4.41
binding signal (log2 enrichment (interaction score)) [2]: -6
binding signal (log2 enrichment (interaction score)) [3]: -5.18
binding signal (log2 enrichment (interaction score)) [4]: -1.53
binding signal (log2 enrichment (interaction score)) [5]: -3.27
binding signal (log2 enrichment (interaction score)) [6]: < -7.37
binding signal (log2 enrichment (interaction score)) [7]: -7.63
binding signal (log2 enrichment (interaction score)) [8]: < -7.05
binding signal (log2 enrichment (interaction score)) [9]: -4.72
binding signal (log2 enrichment (interaction score)) [10]: -4.47
binding signal (log2 enrichment (interaction score)) [11]: -8.4
binding signal (log2 enrichment (interaction score)) [12]: -4.65
binding signal (log2 enrichment (interaction score)) [13]: < -6.84
binding signal (log2 enrichment (interaction score)) [14]: -5.37
binding signal (log2 enrichment (interaction score)) [15]: < -7.97
binding signal (log2 enrichment (interaction score)) [16]: < -6.37
binding signal (log2 enrichment (interaction score)) [17]: < -7.03
binding signal (log2 enrichment (interaction score)) [18]: < -6.82
binding signal (log2 enrichment (interaction score)) [19]: < -6.4
binding signal (log2 enrichment (interaction score)) [20]: -3.93
binding signal (log2 enrichment (interaction score)) [21]: < -6.95
